No end group written: not given here.
Test: CD spectroscopy, R-value (helicity)
Format: physicochemical
Conditions: potassium phosphate buffer with 50 % TFE, 20 °C

Substance | R-value [θ]220 nm/[θ]207 nm (pH 6.8, 10 µM peptide) | R-value [θ]220 nm/[θ]207 nm (pH 7.4, 10 µM peptide)
GLHKHLHKFHNKIKK [sC18^ΔE2] | 0.88 | 0.76
GLHKRLHKFHNKIHK [sC18^ΔE4, variant of sC18^ΔE having a complete part of the helix composed of histidines] | 0.85 | 0.81
GLRHRLRHFRNHIHH [sC18^ΔE1] | 0.84 | 0.82
GLRKRLRKFRNKIKEK-NH2 [sC18] | 0.81 | 0.81
HLRHHLRHFRHHIKH [sC18^ΔE3, variant of sC18^ΔE having a complete part of the helix composed of histidines] | 0.87 | 0.86

Source: paper PMC9570898, “Comparing Variants of the Cell-Penetrating Peptide sC18 to Design Peptide-Drug Conjugates” (Molecules, 2022)
